Data on 2 molecules can be found in PMC5587564.

Chains of the proteins cited; added tags and fusions are not shown.
UniProt P50750: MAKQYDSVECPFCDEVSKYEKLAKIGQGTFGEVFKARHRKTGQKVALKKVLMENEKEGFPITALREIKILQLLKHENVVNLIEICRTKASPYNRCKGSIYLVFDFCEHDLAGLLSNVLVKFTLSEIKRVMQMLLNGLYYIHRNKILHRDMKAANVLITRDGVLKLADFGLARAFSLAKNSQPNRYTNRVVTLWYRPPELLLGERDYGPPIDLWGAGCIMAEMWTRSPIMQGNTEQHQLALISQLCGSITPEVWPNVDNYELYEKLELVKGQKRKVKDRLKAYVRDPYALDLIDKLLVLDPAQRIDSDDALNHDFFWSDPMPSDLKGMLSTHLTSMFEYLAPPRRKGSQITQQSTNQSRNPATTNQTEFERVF
UniProt O94992: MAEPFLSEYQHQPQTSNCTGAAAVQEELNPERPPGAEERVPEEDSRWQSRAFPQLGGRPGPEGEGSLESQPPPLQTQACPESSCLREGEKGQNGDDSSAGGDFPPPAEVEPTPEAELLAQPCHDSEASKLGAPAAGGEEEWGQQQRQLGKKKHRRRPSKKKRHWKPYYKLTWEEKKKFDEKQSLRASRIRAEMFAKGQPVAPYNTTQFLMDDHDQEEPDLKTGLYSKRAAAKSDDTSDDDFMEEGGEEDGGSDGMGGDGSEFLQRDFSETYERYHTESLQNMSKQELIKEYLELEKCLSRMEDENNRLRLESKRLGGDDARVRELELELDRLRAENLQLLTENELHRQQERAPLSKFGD

The target of this experiment is Flag-tagged CDK9 (human) (UniProt P50750). Nature of the experiment: co-IP; anti-Flag agarose IP (2 hr) from nuclear extracts of F1C2 cells stably expressing CDK9-Flag; cells treated with 200 μg/ml Amt-87 or DMSO for 24 hr; Western blot. Background: A western blot detects proteins with antibodies after separation by electrophoresis.

These are yes or no findings as the source states them, for the method shown. In cells and extracts the contact can be indirect. Some results given as binding are weak or reduced against the parent protein; the word gives no strength.

With HEXIM1 (from UniProt O94992 1-359), the binding entry is reported as “binds”.

B1: LARP7 (protein, UniProt Q4G0J3 1-582)
chain: METESGNQEKVMEEESTEKKKEVEKKKRSRVKQVLADIAKQVDFWFGDANLHKDRFLREQIEKSRDGYVDISLLVSFNKMKKLTTDGKLIARALRSSAVVELDLEGTRIRRKKPLGERPKDEDERTVYVELLPKNVNHSWIERVFGKCGNVVYISIPHYKSTGDPKGFAFVEFETKEQAAKAIEFLNNPPEEAPRKPGIFPKTVKNKPIPALRVVEEKKKKKKKKGRMKKEDNIQAKEENMDTSNTSISKMKRSRPTSEGSDIESTEPQKQCSKKKKKRDRVEASSLPEVRTGKRKRSSSEDAESLAPRSKVKKIIQKDIIKEASEASKENRDIEISTEEEKDTGDLKDSSLLKTKRKHKKKHKERHKMGEEVIPLRVLSKSEWMDLKKEYLALQKASMASLKKTISQIKSESEMETDSGVPQNTGMKNEKTANREECRTQEKVNATGPQFVSGVIVKIISTEPLPGRKQVRDTLAAISEVLYVDLLEGDTECHARFKTPEDAQAVINAYTEINKKHCWKLEILSGDHEQRYWQKILVDRQAKLNQPREKKRGTEKLITKAEKIRLAKTQQASKHIRFSEYD
In the case of B1, the binding result is “binds”.
